For data set [1], the system named is four investigated CHO cell lines. In words: Fed-batch cellular performance (VCD and titer), four CHO cell lines. To be noted: feed with 400 μM additive, four biological replicates, vs two control conditions and positive control. The class given is cell-based, Chinese hamster.
Data set [2] deals with CHO cell line producing mAb2. The data set can be described thus: Fed-batch cell performance (titer), clone 2 producing mAb2. Format: cell-based, Chinese hamster. To be noted: mAb2, feed with 400 μM additive, day 17.

The results in this text go back to patent publication US20230022796A1 (Merck Patent GmbH, priority 2019, published 2023).

As to `C[C@@H]1SC(O)[C@@H](O)[C@H](O)[C@@H]1O` (some centres unmarked), in data set [1], the “impact on the cellular performance (VCD and titer)” value is “no significant impact”. This compound also returned a titer in data set [2] of 2.02 g/L.
`CC(=O)OC1O[C@@H](C)[C@@H](OC(C)=O)[C@@H](OC(C)=O)[C@@H]1F` (some centres unmarked) [2F-Peracetylfucose, reference compound]: the titer in data set [2] stood at 1.78 g/L.
On to acetylated 5-Thio-L-Fucose, for which the “impact on the cellular performance (VCD and titer)” value in data set [1] was “no significant impact”. This compound had a titer in data set [2] of 1.82 g/L.
